Non-standard residues stand in square brackets, D forms with d. No end group written: not given here. pGlu = O=C1CC[C@@H](C(=O)O)N1

The data set can be described thus: Brain peptide levels (HPLC + RIA) after gabapentin treatment or withdrawal. In kind it is in vivo, Sprague-Dawley male rats.

Take [pGlu]HPG [TRH-Gly, a TRH precursor]: the “change in immunoreactivity (IR)” value (anterior cingulate, gabapentin withdrawal (W)) is given as “increased”; the “change in immunoreactivity (IR)” value (hippocampus, acute gabapentin (A)) is “decreased”; the “change in immunoreactivity (IR)” value (pyriform cortex, chronic gabapentin (C)) is recorded as “decreased”.
